Data taken from article PMC8498917.

Sequences of proteins named here, by UniProt entry; tags and fusion partners are left off. A change or cut given only in a name is not applied to a line headed by its entry.
UniProt P17028: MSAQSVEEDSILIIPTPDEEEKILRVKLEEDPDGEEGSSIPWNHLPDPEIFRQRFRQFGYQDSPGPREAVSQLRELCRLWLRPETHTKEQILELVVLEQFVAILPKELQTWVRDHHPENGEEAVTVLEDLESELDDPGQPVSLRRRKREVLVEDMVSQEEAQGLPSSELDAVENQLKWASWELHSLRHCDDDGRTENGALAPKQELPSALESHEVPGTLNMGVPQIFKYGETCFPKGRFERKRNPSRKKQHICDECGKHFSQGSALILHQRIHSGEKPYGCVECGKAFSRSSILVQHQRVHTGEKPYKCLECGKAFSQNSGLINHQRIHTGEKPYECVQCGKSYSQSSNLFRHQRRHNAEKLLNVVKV

Experiments:
[1] = system: ZSCAN21; assay: EMSA; conditions: 30 pmol protein, 3 pmol DNA, EMSA: 100 mM Tris-HCl pH 7.5, 7.5 mM KCl, 25 mM MgCl2, 375 mM NaCl, 12.5% glycerol, 5 mM DTT, 30 C, 6% gel, 4 C, recombinant protein, label: Cy3
[2] = biological target: ZNF24 (UniProt P17028); assay: EMSA; conditions: 30 pmol protein, 3 pmol DNA, EMSA: 100 mM Tris-HCl pH 7.5, 7.5 mM KCl, 25 mM MgCl2, 375 mM NaCl, 12.5% glycerol, 5 mM DTT, 30 C, 6% gel, 4 C, recombinant protein, label: Cy3
[3] = strongest shift, 5fC replacing C, exact positions and strand(s) not stated

“AAGTACCAAGTACCAAGTACCAAGTACCAAGTACC (double strand) [5C-(AAGTACC)5]”: binds more weakly ([1]; shift seen).
“TCATTCATTCATTCATTCAT (double strand) [5hmC-(TCAT)5]”: binds more weakly ([2]; 5hmC replacing C, exact positions and strand(s) not stated).
“AAGTACCAAGTACCAAGTACCAAGTACCAAGTACC (double strand) [5mC-(AAGTACC)5]”: binds more weakly ([1]; shift seen, 5mC replacing C, exact positions and strand(s) not stated).
“AAGTACCAAGTACCAAGTACCAAGTACCAAGTACC (double strand) [5fC-(AAGTACC)5]”: binds [1, 3].
“TCATTCATTCATTCATTCAT (double strand) [5mC-(TCAT)5]”: binds more weakly ([2]; 5mC replacing C, exact positions and strand(s) not stated).
“AAGTACCAAGTACCAAGTACCAAGTACCAAGTACC (double strand) [5hmC-(AAGTACC)5]”: binds more weakly ([1]; shift seen, 5hmC replacing C, exact positions and strand(s) not stated).
“TCATTCATTCATTCATTCAT (double strand) [5C-(TCAT)5]”: binds more weakly [2].
“TCATTCATTCATTCATTCAT (double strand) [5fC-(TCAT)5]”: binds [2, 3].

The exact form of at least one protein or probe is not confirmed. Weaker means in comparison with the reference protein, sequence or condition of that experiment.
